Data reported in article PMC6588349, “Conformational dynamics between transmembrane domains and allosteric modulation of a metabotropic glutamate receptor” (eLife, 2019).
No constants are given. Whether binding was seen depends on the method and setting. Binding seen in cells or lysates may run through a third protein. Some entries that bind do so weakly or less than the wild type.

By UniProt entry, the sequences of proteins in these tests, tags left out. Where a name states a change or a piece, a line headed by the entry shows the natural chain unless it says otherwise. Chains listed by the source or under a name are the forms on record and can include a tag or linker.
SNAP-mGluR2-TMD-N735D (P31421, form named): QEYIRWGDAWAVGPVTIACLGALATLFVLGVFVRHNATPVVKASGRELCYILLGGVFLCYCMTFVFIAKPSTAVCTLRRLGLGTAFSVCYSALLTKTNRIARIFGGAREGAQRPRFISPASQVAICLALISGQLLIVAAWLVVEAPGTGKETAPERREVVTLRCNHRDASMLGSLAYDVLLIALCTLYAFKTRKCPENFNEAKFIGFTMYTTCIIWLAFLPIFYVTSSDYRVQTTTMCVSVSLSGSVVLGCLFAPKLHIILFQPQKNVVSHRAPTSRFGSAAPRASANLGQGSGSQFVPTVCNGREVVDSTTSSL

Biological target: SNAP-mGluR2-TMD-N735D (rat) (UniProt P31421)
Assay: FRET or BRET; living HEK 293T cells, N-terminal SNAP (or SNAP and CLIP) tags labelled at the surface with donor and acceptor fluorophores, donor excited at 561 nm, ensemble FRET of cell clusters, acceptor bleaching/donor recovery and drug-induced FRET changes, room temperature

binding: binds
Substance: SNAP-mGluR2-TMD-N735D (from UniProt P31421 558-872) (domain or fragment)
